Changes are numbered by the printed parent chain. Names and notes keep the numbering of the source. Results are given in words; binding and its absence hold for the method and conditions named. Where a sequence is shown, tags or fusion partners need not be part of it. Blank lines part the entries; values can stand above or below the binder they belong to.
Assays:
[1] = molecular target: T1, (His)10-MBP-tagged Thermococcus onnurineus ScpA (TON_1071) (Thermococcus onnurineus) (UniProt B6YWU6); experiment: pull-down; (His)10 pull-down on Ni-NTA resin; (His)10-MBP-tagged ScpA held, untagged putative ScpB, 1 µM each; 20 mM Tris-HCl pH 7.5, 100 mM NaCl, 25°C, 10 min; wash with 30 mM imidazole; denaturing PAGE; both purified
T1 sequence: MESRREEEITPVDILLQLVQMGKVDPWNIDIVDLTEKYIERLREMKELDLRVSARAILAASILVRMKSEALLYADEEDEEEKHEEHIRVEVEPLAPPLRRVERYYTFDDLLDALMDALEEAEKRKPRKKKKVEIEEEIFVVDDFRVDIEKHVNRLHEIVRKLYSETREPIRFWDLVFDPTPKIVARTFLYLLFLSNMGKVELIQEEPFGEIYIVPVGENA

[2] = molecular target: T1, (His)10-MBP-tagged Thermococcus onnurineus ScpA (TON_1071) (Thermococcus onnurineus); experiment: SEC; mixture of (His)10-MBP-tagged ScpA and ScpB homologue on Superdex 200 Increase 10/300 GL; 20 mM Tris-HCl pH 7.5, 100 mM NaCl, 1 mM DTT, 4°C; 10 µM each in 100 µl; both purified
[3] = molecular target: ToScpA(E69C)-GFP-(His)10 (Thermococcus onnurineus) (UniProt B6YWU6); experiment: cross-linking; BMOE (200 µM) cysteine cross-linking of co-purified ToSmcHd-CC80 and ToScpA(E69C)-GFP-(His)10 at 2 µM; 20 mM Tris-HCl pH 7.5, 100 mM NaCl, 10 min, 25°C; denaturing PAGE, GFP signal, Coomassie, bands confirmed by mass spectrometry; both purified

binding [1]: no binding (tested: 1 µM each)
binding [2]: no binding (tested: 10 µM each)
B1: TON_1955 (putative Thermococcus onnurineus ScpB), untagged (protein)
chain: MGLLEDKALVEAALFVSGRPLSIKELSRALGIRSLDYLEKLIELIAAEYAERKSAIEVVRVLGDKYVMQVKQEYSQRVVHLMPRPDLRTGELKTLALIAYLQPIEQSKLVKLRGSQAYEHIRKLLEMGLIYAEPYERTKLLGTTPKFAELYGFPENDPMMIKEAFKKVVHAEYSDLIAKLEGKEEKEEMPQESEE

B2: ToScpA(E69C)-GFP-(His)10 (protein, UniProt B6YWU6 1-220)
chain: T1 sequence with E69C
binding [3]: no binding

Source: publication PMC7055376, “Evidence for binary Smc complexes lacking kite subunits in archaea” (IUCrJ, 2020)
